For at least one entry, the source does not settle the construct or the ends of the probe. Where cells or extracts were used, other partners may take part. For some assays here: A negative result means that nothing was seen under these conditions. For some assays here: At least one verdict rests on a figure or table, not on a statement of the authors.
Tests used:
[1] = biological target: CD30 (on Karpas 299 ALCL cells) (human) (UniProt P28908); assay: flow cytometry and fluorescence microscopy (cell binding); conditions: aptamer in PEI-citrate nanocomplex with Cy5-ssDNA reporter, binds Karpas 299, not CD30-negative Jurkat; none stated; non-covalently incorporated into PEI-citrate nanocores; 2x10^5 cells in 0.5 ml culture medium, 30 min, room temperature; nanocomplexes with PEI N to total oligonucleotide P ratio 1:1; protein on the cell surface; label: none on aptamer, Cy5 on co-loaded ssDNA reporter
[2] = biological target: CD30 (on Karpas 299 ALCL cells) (human) (UniProt P28908); assay: flow cytometry (cell binding); conditions: PEI-citrate/Cy5-ssDNA without aptamer, PEI N to ssDNA P ratio <=1:1, no binding to Karpas 299 cells; non-covalently incorporated into PEI-citrate nanocores; 2x10^5 cells in 0.5 ml culture medium, 30 min, room temperature; nanocomplexes with PEI N to total oligonucleotide P ratio 1:1; protein on the cell surface; label: 5' Cy5; single-stranded DNA; letters put together from the description

Protein sequences, listed by entry. Tags and fused reporters are not part of them. Residues count along the entry.
UniProt P28908, 19-595: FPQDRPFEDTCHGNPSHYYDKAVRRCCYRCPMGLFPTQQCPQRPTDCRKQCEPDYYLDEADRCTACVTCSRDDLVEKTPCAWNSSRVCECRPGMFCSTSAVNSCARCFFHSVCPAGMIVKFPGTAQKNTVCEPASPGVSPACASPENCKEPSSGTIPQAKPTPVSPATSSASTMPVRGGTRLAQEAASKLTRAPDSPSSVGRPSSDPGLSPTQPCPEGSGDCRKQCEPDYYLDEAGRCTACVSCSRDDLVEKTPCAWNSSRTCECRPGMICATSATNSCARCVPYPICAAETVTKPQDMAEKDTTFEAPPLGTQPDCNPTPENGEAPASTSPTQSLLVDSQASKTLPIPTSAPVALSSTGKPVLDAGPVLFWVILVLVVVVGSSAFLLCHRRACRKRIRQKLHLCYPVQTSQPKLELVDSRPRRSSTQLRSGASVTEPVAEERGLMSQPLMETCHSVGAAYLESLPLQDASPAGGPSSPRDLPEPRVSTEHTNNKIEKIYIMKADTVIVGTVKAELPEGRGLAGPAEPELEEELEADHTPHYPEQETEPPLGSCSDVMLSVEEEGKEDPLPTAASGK

Sequence | binding result [1] | binding result [2]
GAUUCGUAUGGGUGGGAUCGGGAAGGGCUACGAACACCG [CD30 RNA aptamer] | binds | –
CACTTAGTAGTGTACCGCCTT [Cy5-ssDNA reporter (ALK siRNA sense sequence)] | – | no binding
